Experimental data taken from publication PMC10251205.
No constants are given. Whether binding was seen depends on the method and setting. In cells and extracts the contact can be indirect. Some results given as binding are weak or reduced against the parent protein; the word gives no strength.

By UniProt entry, the sequences of proteins in these tests, tags left out. Residues count along the entry.
UniProt P25942, residues 21-277: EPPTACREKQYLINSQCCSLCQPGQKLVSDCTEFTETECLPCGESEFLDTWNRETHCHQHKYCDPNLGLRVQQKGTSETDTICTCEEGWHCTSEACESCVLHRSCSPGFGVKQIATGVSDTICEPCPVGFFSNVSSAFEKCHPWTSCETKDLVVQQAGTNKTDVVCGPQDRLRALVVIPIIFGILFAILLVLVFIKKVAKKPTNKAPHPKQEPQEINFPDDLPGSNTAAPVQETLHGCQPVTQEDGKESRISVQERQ
UniProt Q96EP0: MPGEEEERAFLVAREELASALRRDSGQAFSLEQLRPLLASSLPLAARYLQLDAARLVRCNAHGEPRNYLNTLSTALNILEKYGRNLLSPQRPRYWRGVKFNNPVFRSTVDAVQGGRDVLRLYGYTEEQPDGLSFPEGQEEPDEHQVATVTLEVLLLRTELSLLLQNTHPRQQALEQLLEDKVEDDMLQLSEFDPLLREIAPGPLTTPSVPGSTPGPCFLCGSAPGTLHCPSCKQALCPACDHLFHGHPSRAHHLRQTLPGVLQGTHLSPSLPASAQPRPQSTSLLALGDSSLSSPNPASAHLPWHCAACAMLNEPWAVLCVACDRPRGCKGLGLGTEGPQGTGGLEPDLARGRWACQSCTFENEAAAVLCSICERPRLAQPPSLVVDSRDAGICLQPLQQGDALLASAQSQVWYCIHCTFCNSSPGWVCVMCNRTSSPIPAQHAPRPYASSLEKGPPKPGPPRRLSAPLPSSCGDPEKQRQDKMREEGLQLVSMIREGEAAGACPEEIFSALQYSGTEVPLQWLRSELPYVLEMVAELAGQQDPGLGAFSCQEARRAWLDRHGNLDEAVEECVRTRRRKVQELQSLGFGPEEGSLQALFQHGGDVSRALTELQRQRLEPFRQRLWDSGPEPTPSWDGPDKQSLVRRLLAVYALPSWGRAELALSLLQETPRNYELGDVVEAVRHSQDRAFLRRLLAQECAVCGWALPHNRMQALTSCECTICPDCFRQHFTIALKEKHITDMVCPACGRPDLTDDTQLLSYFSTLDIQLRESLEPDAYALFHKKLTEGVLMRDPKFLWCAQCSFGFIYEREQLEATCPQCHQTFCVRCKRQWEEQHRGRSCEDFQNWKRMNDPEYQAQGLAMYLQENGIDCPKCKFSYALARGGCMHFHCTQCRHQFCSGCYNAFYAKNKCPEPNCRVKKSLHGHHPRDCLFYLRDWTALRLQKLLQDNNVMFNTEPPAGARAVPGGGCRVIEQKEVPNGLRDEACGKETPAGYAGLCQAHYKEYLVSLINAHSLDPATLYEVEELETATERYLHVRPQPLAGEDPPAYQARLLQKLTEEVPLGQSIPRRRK

Columns and labels:
[1] = target: CD40 (human (endogenous in monocyte-derived iDCs)) (UniProt P25942); test: co-IP; iDCs stimulated with HERA-CD40L or Selicrelumab (500 ng/ml, 15 min), lysed; CD40 signaling complex captured through the agonist by goat anti-human IgG-Fc on Protein G Dynabeads; blots for the associated proteins
[2] = target: CD40 (human (endogenous in monocyte-derived iDCs)) (UniProt P25942); test: condition: only iDCs stimulated with Selicrelumab (500 ng/ml) instead of HERA-CD40L; co-IP; as a3, iDCs stimulated with Selicrelumab only (500 ng/ml, 15 min)
[3] = target: T1, TRAF2 (human (endogenous in monocyte-derived iDCs)) (UniProt Q12933); test: co-IP; IP of TRAF2 with mouse anti-human TRAF2 on Protein G Dynabeads from lysates of iDCs stimulated with Selicrelumab or HERA-CD40L (15 min); goat anti-human IgG-F(ab)2 fragment added to the lysates
T1 sequence: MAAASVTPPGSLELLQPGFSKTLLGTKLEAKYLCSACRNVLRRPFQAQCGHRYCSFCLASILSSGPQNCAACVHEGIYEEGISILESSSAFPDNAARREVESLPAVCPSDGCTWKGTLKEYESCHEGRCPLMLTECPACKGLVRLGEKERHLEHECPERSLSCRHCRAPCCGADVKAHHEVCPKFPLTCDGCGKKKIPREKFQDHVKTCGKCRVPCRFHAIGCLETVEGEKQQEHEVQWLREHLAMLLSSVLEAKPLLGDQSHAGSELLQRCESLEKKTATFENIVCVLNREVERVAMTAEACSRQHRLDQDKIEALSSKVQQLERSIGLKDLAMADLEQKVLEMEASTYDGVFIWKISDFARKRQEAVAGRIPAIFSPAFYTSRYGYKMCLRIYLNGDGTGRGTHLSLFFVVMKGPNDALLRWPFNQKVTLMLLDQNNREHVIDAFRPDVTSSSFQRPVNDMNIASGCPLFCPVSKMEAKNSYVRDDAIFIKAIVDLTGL

In the case of “HOIP (RNF31) (from UniProt Q96EP0 1-1072) (enzyme)”, the binding [1] is reported as “binds”.

B1: phosphorylated TBK1 (enzyme, UniProt Q9UHD2 1-729)
chain: MQSTSNHLWLLSDILGQGATANVFRGRHKKTGDLFAIKVFNNISFLRPVDVQMREFEVLKKLNHKNIVKLFAIEEETTTRHKVLIMEFCPCGSLYTVLEEPSNAYGLPESEFLIVLRDVVGGMNHLRENGIVHRDIKPGNIMRVIGEDGQSVYKLTDFGAARELEDDEQFVSLYGTEEYLHPDMYERAVLRKDHQKKYGATVDLWSIGVTFYHAATGSLPFRPFEGPRRNKEVMYKIITGKPSGAISGVQKAENGPIDWSGDMPVSCSLSRGLQVLLTPVLANILEADQEKCWGFDQFFAETSDILHRMVIHVFSLQQMTAHKIYIHSYNTATIFHELVYKQTKIISSNQELIYEGRRLVLEPGRLAQHFPKTTEENPIFVVSREPLNTIGLIYEKISLPKVHPRYDLDGDASMAKAITGVVCYACRIASTLLLYQELMRKGIRWLIELIKDDYNETVHKKTEVVITLDFCIRNIEKTVKVYEKLMKINLEAAELGEISDIHTKLLRLSSSQGTIETSLQDIDSRLSPGGSLADAWAHQEGTHPKDRNVEKLQVLLNCMTEIYYQFKKDKAERRLAYNEEQIHKFDKQKLYYHATKAMTHFTDECVKKYEAFLNKSEEWIRKMLHLRKQLLSLTNQCFDIEEEVSKYQEYTNELQETLPQKMFTASSGIKHTMTPIYPSSNTLVEMTLGMKKLKEEMEGVVKELAENNHILERFGSLTMDGGLRNVDCL
modifications: phosphorylated, site not given
With B1 the binding [1] was “binds”, the binding [2] was “no binding” and the binding [3] was “binds”.

B2: TRAF1 (protein, UniProt Q13077 1-416)
chain: MASSSGSSPRPAPDENEFPFGCPPTVCQDPKEPRALCCAGCLSENPRNGEDQICPKCRGEDLQSISPGSRLRTQEKAHPEVAEAGIGCPFAGVGCSFKGSPQSVQEHEVTSQTSHLNLLLGFMKQWKARLGCGLESGPMALEQNLSDLQLQAAVEVAGDLEVDCYRAPCSESQEELALQHFMKEKLLAELEGKLRVFENIVAVLNKEVEASHLALATSIHQSQLDRERILSLEQRVVELQQTLAQKDQALGKLEQSLRLMEEASFDGTFLWKITNVTRRCHESACGRTVSLFSPAFYTAKYGYKLCLRLYLNGDGTGKRTHLSLFIVIMRGEYDALLPWPFRNKVTFMLLDQNNREHAIDAFRPDLSSASFQRPQSETNVASGCPLFFPLSKLQSPKHAYVKDDTMFLKCIVETST
In the case of B2, the binding [1] is reported as “binds” and the binding [3] is reported as “binds”.
